These are yes or no findings as the source states them, for the method shown. In cells and extracts the contact can be indirect. Some binding calls cover weakened binding; strength is not graded here. For part of these data: Sequences can lack the tags named with a protein.

The chains behind the UniProt entries cited, without tags or fusion partners. Where a name states a change or a piece, a line headed by the entry shows the natural chain unless it says otherwise. Residues count along the entry.
UniProt Q96P20: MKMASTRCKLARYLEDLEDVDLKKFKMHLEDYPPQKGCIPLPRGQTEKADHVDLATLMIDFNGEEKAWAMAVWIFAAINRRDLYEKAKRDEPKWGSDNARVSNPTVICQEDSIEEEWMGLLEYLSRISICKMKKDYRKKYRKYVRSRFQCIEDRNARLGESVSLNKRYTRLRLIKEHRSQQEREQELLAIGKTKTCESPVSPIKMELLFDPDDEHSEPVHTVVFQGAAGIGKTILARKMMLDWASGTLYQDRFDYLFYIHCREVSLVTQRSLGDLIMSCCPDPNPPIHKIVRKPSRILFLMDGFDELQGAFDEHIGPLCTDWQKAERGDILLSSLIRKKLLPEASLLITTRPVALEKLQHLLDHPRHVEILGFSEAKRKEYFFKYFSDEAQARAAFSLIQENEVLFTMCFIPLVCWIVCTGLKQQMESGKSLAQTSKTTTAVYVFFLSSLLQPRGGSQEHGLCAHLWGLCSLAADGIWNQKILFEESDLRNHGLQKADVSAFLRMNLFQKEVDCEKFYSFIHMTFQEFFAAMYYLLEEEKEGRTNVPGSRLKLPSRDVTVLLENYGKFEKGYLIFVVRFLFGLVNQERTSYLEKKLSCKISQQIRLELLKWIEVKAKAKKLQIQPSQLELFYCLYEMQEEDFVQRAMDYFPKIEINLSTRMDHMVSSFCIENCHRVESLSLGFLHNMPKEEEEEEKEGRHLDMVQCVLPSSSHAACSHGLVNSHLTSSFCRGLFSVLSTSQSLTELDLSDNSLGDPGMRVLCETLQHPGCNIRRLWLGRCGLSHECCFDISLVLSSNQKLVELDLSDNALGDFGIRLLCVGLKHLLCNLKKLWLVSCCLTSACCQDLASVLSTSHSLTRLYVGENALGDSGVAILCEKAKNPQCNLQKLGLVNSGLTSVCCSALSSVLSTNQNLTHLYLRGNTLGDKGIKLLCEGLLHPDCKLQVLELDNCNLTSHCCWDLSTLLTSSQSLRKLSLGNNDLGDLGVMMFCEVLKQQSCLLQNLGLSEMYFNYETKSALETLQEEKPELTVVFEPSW
Flag-NACHT (NLRP3 NACHT domain): residues 220-536 of Q96P20

The target of one assay is Mcherry-NLRP3 (UniProt Q96P20). The experiment in a line: co-IP; Flag-NEK7 and mCherry-NLRP3 co-expressed in HEK-293T cells with or without different doses of GFP-TRIM65 (Figure 4F).
Assay [1] has as its target Flag-NACHT (NLRP3 NACHT domain) (UniProt Q96P20). Kind of assay: co-IP; both partners cotransfected in HEK-293T cells (polyethylenimine, 24 h); extracts immunoprecipitated (anti-Flag beads 3 h at 4°C, or antibody and protein A/G agarose 12 h at 4°C), washed four times in NP-40 lysis buffer, western blotting (Figures 1A, 1F, 1G). On the technique in general: Immunoblotting shows a protein as a band on a membrane.

Assay [2] deals with Flag-NLRP3 (full length) (UniProt Q96P20). Described as above.
Assay [3] addresses endogenous NLRP3 (THP-1) (human (endogenous in THP-1)) (UniProt Q96P20). The experiment in a line: co-IP; both endogenous; lysates of PMA-differentiated and LPS-primed THP-1 cells immunoprecipitated with anti-NLRP3 antibody (Figure 1C); also with or without MSU stimulation (Figure 4D).
For another assay, the target named is VSV-NLRP3 (UniProt Q96P20). Kind of assay: co-IP; both partners cotransfected in HEK-293T cells (polyethylenimine, 24 h); extracts immunoprecipitated (anti-Flag beads 3 h at 4°C, or antibody and protein A/G agarose 12 h at 4°C), washed four times in NP-40 lysis buffer, western blotting (Figures 1A, 1F, 1G).
Assay [4] addresses Flag-NLRP3 (full length) (UniProt Q96P20). The experiment in a line: co-IP; Flag-NLRP3 transfected in HEK-293T cells, endogenous TRIM65 detected by western blotting (Figure 1B).

B1: GFP-TRIM65 (full length) (protein, UniProt Q6PJ69 1-517)
chain: MAAQLLEEKLTCAICLGLYQDPVTLPCGHNFCGACIRDWWDRCGKACPECREPFPDGAELRRNVALSGVLEVVRAGPARDPGPDPGPGPDPAARCPRHGRPLELFCRTEGRCVCSVCTVRECRLHERALLDAERLKREAQLRASLEVTQQQATQAEGQLLELRKQSSQIQNSACILASWVSGKFSSLLQALEIQHTTALRSIEVAKTQALAQARDEEQRLRVHLEAVARHGCRIRELLEQVDEQTFLQESQLLQPPGPLGPLTPLQWDEDQQLGDLKQLLSRLCGLLLEEGSHPGAPAKPVDLAPVEAPGPLAPVPSTVCPLRRKLWQNYRNLTFDPVSANRHFYLSRQDQQVKHCRQSRGPGGPGSFELWQVQCAQSFQAGHHYWEVRASDHSVTLGVSYPQLPRCRLGPHTDNIGRGPCSWGLCVQEDSLQAWHNGEAQRLPGVSGRLLGMDLDLASGCLTFYSLEPQTQPLYTFHALFNQPLTPVFWLLEGRTLTLCHQPGAVFPLGPQEEVLS
For the molecule B1, the binding entry (in the assay with Mcherry-NLRP3; in assay [1]; in the assay with Flag-NLRP3 (full length) [2]) was “binds” in each case.

B2: endogenous TRIM65 (THP-1) (protein, UniProt Q6PJ69 1-517)
chain: B1 chain
As to B2, in assay [3], the binding result is given as “binds”.

B3: Flag-TRIM65 (full length, Figure 1F) (protein, UniProt Q6PJ69 1-517)
chain: B1 chain
Regarding B3, in the assay with VSV-NLRP3, the binding result is recorded as “binds”.

B4: endogenous TRIM65 (HEK-293T) (protein, UniProt Q6PJ69 1-517)
chain: B1 chain
For the molecule B4, in the assay with Flag-NLRP3 (full length) [4], the binding result is recorded as “binds”.

The values above are taken from publication PMC8427430.
